Reference: patent publication US20190263932A1
These are yes or no findings as the source states them, for the method shown. Some binding calls cover weakened binding; strength is not graded here.

Protein sequences, listed by entry. Tags and fused reporters are not part of them. Lines headed by an entry give the natural chain unless they say otherwise; changes in a name come on top.
UniProt P04629: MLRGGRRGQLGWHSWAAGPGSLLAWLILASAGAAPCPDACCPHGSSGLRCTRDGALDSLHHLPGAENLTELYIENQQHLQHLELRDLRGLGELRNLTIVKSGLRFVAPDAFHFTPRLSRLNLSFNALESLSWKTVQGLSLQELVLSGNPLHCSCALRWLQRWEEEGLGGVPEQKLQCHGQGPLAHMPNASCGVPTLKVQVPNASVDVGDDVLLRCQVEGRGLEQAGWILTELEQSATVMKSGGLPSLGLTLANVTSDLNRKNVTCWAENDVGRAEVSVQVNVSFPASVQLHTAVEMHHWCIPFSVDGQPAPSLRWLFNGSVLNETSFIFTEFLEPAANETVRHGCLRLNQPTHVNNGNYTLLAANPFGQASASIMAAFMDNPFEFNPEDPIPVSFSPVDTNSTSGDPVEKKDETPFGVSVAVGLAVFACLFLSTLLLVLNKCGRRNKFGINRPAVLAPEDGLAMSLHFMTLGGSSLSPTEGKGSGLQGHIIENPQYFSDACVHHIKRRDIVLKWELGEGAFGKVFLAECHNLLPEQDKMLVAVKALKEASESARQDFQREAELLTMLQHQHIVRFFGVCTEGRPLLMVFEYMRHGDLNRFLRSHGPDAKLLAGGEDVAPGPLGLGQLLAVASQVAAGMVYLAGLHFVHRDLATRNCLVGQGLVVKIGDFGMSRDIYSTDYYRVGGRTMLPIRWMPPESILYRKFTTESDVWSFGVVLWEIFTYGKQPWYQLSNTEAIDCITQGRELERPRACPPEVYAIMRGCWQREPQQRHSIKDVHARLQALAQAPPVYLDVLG
UniProt Q3UFB7: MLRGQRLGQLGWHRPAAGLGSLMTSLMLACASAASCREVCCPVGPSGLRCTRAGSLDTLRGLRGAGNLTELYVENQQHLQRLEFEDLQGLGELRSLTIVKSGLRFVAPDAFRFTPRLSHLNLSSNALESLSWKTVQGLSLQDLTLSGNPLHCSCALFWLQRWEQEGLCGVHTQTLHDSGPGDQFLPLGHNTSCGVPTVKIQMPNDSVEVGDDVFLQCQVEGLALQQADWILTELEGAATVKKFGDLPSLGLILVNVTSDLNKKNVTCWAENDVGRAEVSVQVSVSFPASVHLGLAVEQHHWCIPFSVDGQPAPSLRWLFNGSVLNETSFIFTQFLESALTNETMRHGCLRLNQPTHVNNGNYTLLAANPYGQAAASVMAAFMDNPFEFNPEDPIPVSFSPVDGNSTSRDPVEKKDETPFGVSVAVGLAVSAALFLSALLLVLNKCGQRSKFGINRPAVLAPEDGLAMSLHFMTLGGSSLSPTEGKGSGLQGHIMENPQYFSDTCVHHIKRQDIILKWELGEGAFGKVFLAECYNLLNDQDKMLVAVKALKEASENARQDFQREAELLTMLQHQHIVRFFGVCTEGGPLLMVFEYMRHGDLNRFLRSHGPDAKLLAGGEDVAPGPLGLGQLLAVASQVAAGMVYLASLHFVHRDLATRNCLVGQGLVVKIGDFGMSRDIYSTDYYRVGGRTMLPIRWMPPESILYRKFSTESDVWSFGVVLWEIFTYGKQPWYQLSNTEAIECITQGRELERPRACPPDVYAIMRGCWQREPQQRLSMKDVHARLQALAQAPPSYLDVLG
UniProt P35739: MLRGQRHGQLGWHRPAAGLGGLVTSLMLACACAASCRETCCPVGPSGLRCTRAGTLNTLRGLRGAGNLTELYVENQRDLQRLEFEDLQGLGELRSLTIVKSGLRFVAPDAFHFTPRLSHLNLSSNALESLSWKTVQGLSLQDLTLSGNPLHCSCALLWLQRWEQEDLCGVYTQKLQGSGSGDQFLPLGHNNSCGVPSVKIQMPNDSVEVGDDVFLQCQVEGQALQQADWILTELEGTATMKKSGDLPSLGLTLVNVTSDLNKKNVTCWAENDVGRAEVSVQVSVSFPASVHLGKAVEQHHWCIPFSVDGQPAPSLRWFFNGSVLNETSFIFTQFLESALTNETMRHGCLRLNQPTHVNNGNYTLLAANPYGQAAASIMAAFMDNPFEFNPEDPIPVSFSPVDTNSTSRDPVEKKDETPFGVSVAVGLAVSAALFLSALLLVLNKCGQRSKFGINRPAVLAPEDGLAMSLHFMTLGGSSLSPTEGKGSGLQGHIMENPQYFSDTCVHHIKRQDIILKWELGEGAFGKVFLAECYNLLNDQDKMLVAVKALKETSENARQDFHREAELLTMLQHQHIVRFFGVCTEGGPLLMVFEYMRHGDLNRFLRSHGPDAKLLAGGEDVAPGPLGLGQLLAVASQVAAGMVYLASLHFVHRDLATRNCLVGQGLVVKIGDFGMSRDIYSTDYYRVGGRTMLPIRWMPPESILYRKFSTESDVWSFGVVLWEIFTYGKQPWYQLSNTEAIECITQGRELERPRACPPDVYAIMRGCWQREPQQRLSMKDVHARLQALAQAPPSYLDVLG

Key:
Assay in all cases: SPR, mAb captured on Protein A chip, 37 C
[1] = biological target: Cynomolgus monkey TrkA Extracellular Domain (59-434) (cynomolgus monkey)
[2] = biological target: Human TrkA Extracellular Domain Isoform 1 (33-414) (human) (UniProt P04629)
[3] = biological target: Human TrkA Extracellular Domain Isoform 2 (33-408) (human) (UniProt P04629)
[4] = biological target: Mouse TrkA Extracellular Domain (33-417 with 396-401 deletion) (mouse) (UniProt Q3UFB7)
[5] = biological target: Rabbit TrkA Extracellular Domain (33-414) (rabbit)
[6] = biological target: Rat TrkA Extracellular Domain (33-411) (rat) (UniProt P35739)

binding [1]: binds
binding [2]: binds
binding [3]: binds
binding [4]: binds
binding [5]: binds
binding [6]: binds
B1: mAb A (antibody, human IgG4 S228P, kappa, F234A L235A, V domains shown)
VH: EVQLVESGGGLVKPGGSLRLSCAASGFTFSGVSINWVRQAPGKGLEWVSSETTSSGTIYYADSVKGRFTISRDNAKNSLYLQMNSLRAEDTAVYYCARSYYYGMDVWGQGTTVTVSS
VL: DIVMTQTPLSSPVTLGQPASISCRSSQSLVHRNGNTYLSWLQQRPGQPPRLLIYKISNRFSGVPDRFSGSGAGTDFTLKISRVEAEDVGVYYCMQARQFPLTFGGGTKVEIKR
